{"source": "patent US20160376247A1", "about": "“NOVEL TEMPERATURE-SENSITIVE FLUORESCENT COMPOUND AND APPLICATION THEREOF” (SHANGHAI INSTITUTES FOR BIOLOGICAL SCIENCES, CHINESE …, priority 2013, published 2016)", "key": {"live cells": {"test_system": "live cells", "test": "Intracellular distribution of dye and calibration dye in stained live cells", "assay_type": "cell-based", "conditions": "temperature-sensitive dye and its calibration dye"}, "COS7 cells": {"test_system": "COS7 cells", "test": "Confocal imaging of COS7 cells co-stained with dye and Rh800 (mitochondrial distribution)", "assay_type": "cell-based", "conditions": "co-staining with Rh800"}, "HepG2 cells [1]": {"test_system": "HepG2 cells", "test": "Staining of living HepG2 cells, Stokes and anti-Stokes luminescence imaging (entry of dye into the cell)", "assay_type": "cell-based", "conditions": "for entry of dye into the cell / binding to cell surface: living cells stained with dye, conclusion from staining and elution"}, "HepG2 cells [2]": {"test_system": "HepG2 cells", "test": "Perfusion (elution) of stained HepG2 cells, Stokes luminescence intensity vs perfusion time", "assay_type": "cell-based"}, "mitochondria": {"test_system": "mitochondria", "conditions": "known dyes; cited from earlier work"}}, "note": "Some entries repeat one wording, which the source may state once for all of them."}
{"compound": "CCN(CC)c1ccc2c(-c3ccccc3C(=O)OCOC(C)=O)c3ccc(=[N+](CC)CC)cc-3oc2c1", "note": "[RhBAM]", "values": [{"measurement": "intracellular distribution", "setting": "live cells", "result": "in cytoplasm"}]}
{"compound": "CCN(CC)c1ccc2c(-c3ccccc3C(=O)OC)c3ccc(N(CC)CC)cc3[o+]c2c1.[Cl-]", "note": "[RhBME]", "values": [{"measurement": "distribution in cell", "setting": "COS7 cells", "result": "distributes on mitochondria"}]}
{"compound": "COC(=O)c1ccccc1C1=c2cc3c4c(c2Oc2c1cc1c5c2CCCN5CCC1)CCC[N+]=4CCC3.[Cl-]", "note": "[Rh101ME]", "values": [{"measurement": "distribution in cell", "setting": "COS7 cells", "result": "distributes on mitochondria"}]}
{"compound": "CC(=O)OCOC(=O)c1ccccc1C1=c2cc3c4c(c2Oc2c1cc1c5c2CCCN5CCC1)CCC[N+]=4CCC3", "note": "[Rh101AM]", "values": [{"measurement": "entry of dye into the cell / binding to cell surface", "setting": "HepG2 cells [1]", "result": "significantly and intracellularly enriched and is difficult to be eluted"}, {"measurement": "fluorescent maintained in cells after perfusion", "setting": "HepG2 cells [2]; HepG2 cells stained 200 nM 60 mins, perfusion solution containing or not containing probenecid for 10 mins, normalized to 0 min", "result": "≥ 50", "unit": "%"}, {"measurement": "Stokes luminescence of the cells after perfusion", "setting": "HepG2 cells [2]; perfusion solution containing probenecid over 30 mins", "result": "still certain Stokes luminescence"}, {"measurement": "Stokes luminescence of the cells after perfusion", "setting": "HepG2 cells [2]; perfusion solution not containing probenecid for 25 mins", "result": "almost disappeared"}]}
{"compound": "CC(=O)OCOC(=O)c1ccccc1-c1c2ccc(=N)cc-2oc2cc(N)ccc12", "note": "[Rh110AM]", "values": [{"measurement": "intracellular distribution", "setting": "live cells", "result": "in cytoplasm"}]}
{"compound": "N#CC1=c2cc3c4c(c2Oc2c1cc1c5c2CCCN5CCC1)CCC[N+]=4CCC3", "note": "[Rh800]", "values": [{"measurement": "distribution in cell", "setting": "COS7 cells", "result": "distributes on mitochondria"}]}
{"compound": "CCCCCCCCCCCCCCCCOC(=O)c1ccccc1-c1c2ccc(=[N+](CC)CC)cc-2oc2cc(N(CC)CC)ccc12", "note": "[RhB-C16]", "values": [{"measurement": "intracellular distribution", "setting": "live cells", "result": "distributes on cell membrane"}]}
{"compound": "CCN(CC)c1ccc2c(-c3ccccc3C(=O)OCc3ccc(C(=O)Nc4cc5cccnc5c5ncccc45)cc3)c3ccc(=[N+](CC)CC)cc-3oc2c1", "note": "[RPA, Rhodamine B-[(1,10-phenanthrolin-5-yl)aminocarbonyl]benzyl ester]", "values": [{"measurement": "subcellular localization", "setting": "mitochondria", "result": "localized in mitochondria"}]}
{"compound": "tetramethylrhodamine methyl ester [TMRM]", "values": [{"measurement": "subcellular localization", "setting": "mitochondria", "result": "localized in mitochondria"}]}
{"compound": "O=C(O)c1ccccc1C1=c2cc3c4c(c2Oc2c1cc1c5c2CCCN5CCC1)CCC[N+]=4CCC3", "note": "[Rh101, rhodamine 101]", "values": [{"measurement": "anti-Stokes luminescence of stained cells compared with Rh101AM staining (FIG. 4(b) vs FIG. 3(b))", "setting": "HepG2 cells [1]; HepG2, 200 nM, 60 mins, excited 635 nm, collected 573-613 nm, identical imaging and temperature conditions", "result": "much weaker"}, {"measurement": "entry of dye into the cell / binding to cell surface", "setting": "HepG2 cells [1]", "result": "merely adheres outside the cell, instead of entering into the cell"}, {"measurement": "Stokes luminescence of the cells after perfusion", "setting": "HepG2 cells [2]; HepG2 cells stained 200 nM 60 mins, perfusion solution containing probenecid (2.5 mM, Tyrode) for 10 mins", "result": "almost disappeared"}]}
{"compound": "CCCCCCCCCCCCCCCCOC(=O)c1ccccc1-c1c2ccc(=N)cc-2oc2cc(N)ccc12", "note": "[Rh110-C16]", "values": [{"measurement": "intracellular distribution", "setting": "live cells", "result": "distributes on cell membrane"}]}
{"compound": "CCN(CC)c1ccc2c(-c3ccccc3C(=O)O)c3ccc(=[N+](CC)CC)cc-3oc2c1", "note": "[RhB, Rhodamine B]", "values": [{"measurement": "entry of dye into the cell / binding to cell surface", "setting": "HepG2 cells [1]", "result": "difficult for RhB to enter a cell"}]}
